PubChem BioAssay AID504786 | Drosophila RNAi Screening Center – 2011

Screen: 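Fly genes required for HIF-dependent transcription when hypoxia is mimicked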 (primary screen)
Cells: Drosophila S2 cells with a stable HIF luciferase reporter
Knock-down reagent: long dsRNA against Drosophila genes, about 0.2 µg dsRNA per well of a 384-well plate
Duration: three days of knock-down, then 20 h of DFO before reading
Challenge: desferrioxamine (DFO) at 100 µM, an iron chelator that mimics hypoxia, for 20 h
Measured: 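Firefly luciferase driven by the mouse ldh-a hypoxia-response element, measured after 20 h of 100 µM DFO; z-scores per plate, higher means more signal lost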
Reading the numbers: z-score: higher = stronger loss of HIF reporter signal
The screen tested about 21,000 reagents; shown is a random part of those with a known target gene and a result. 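Primary screen; positive scores mean lost reporter signal, so the sign may be inverted from the usual convention.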 Further read-outs or replicates are left out here.

| target gene | dsRNA | z-score, replicate 1 | z-score, replicate 2 | z-score, replicate 3 |
| --- | --- | --- | --- | --- |
| peg | DRSC15216 | -0.5 | -0.2 | – |
| p38a | DRSC16743 | -0.4 | 0 | – |
| Cyfip | DRSC15679 | -0.1 | 0.4 | – |
| RfC3 | DRSC03411 | -0.1 | -0.1 | – |
| CG6843 | DRSC10725 | -0.1 | 0.2 | – |
| Gp93 | DRSC15827 | -0.3 | -0.2 | – |
| Sbf | DRSC16852 | -0.5 | -1 | – |
| Syp | DRSC13444 | -0.4 | 0 | – |
| Syp | DRSC15286 | -0.3 | -0.4 | – |
| TfIIFbeta | DRSC16884 | -0.3 | -0.5 | – |
| Dlip3 | DRSC07401 | -0.2 | -0.7 | – |
| CG32726 | DRSC17521 | -0.3 | -0.3 | – |
| CG11537 | DRSC08200 | -0.2 | -0.3 | – |
| Phae2 | DRSC02555 | -0.4 | -0.2 | – |
| Aatf | DRSC02131 | -0.3 | 0.1 | – |
| CG42564 | DRSC12518 | 0 | 0.2 | – |
| CG6293 | DRSC16011 | -0.3 | -0.7 | – |
| CG3687 | DRSC06850 | -0.1 | 0.1 | – |
| SdhB | DRSC05018 | -0.2 | -0.5 | – |
| CG2617 | DRSC02712 | -0.3 | -0.4 | – |
| Arfip | DRSC15179 | 0.1 | -0.1 | – |
| CG5254 | DRSC18611 | -0.3 | 0 | – |
| Cyp4d1 | DRSC17694 | -0.1 | -0.3 | – |
| Cyp4d1 | DRSC18456 | -0.2 | -0.2 | – |
| JMJD7 | DRSC09703 | 0.2 | -0.2 | – |
| whd | DRSC07351 | -0.4 | -0.4 | – |
| Alk | DRSC05918 | -0.3 | -0.7 | – |
| CG32086 | DRSC10586 | -0.3 | -0.1 | – |
| kermit | DRSC06074 | -0.2 | -0.4 | – |
| CG18180 | DRSC10304 | -0.3 | -0.4 | – |

The list goes on; the last 8 above are carried over.
| target gene | dsRNA | z-score, replicate 1 | z-score, replicate 2 | z-score, replicate 3 |
| --- | --- | --- | --- | --- |
| Cyp4d1 | DRSC17694 | -0.1 | -0.3 | – |
| Cyp4d1 | DRSC18456 | -0.2 | -0.2 | – |
| JMJD7 | DRSC09703 | 0.2 | -0.2 | – |
| whd | DRSC07351 | -0.4 | -0.4 | – |
| Alk | DRSC05918 | -0.3 | -0.7 | – |
| CG32086 | DRSC10586 | -0.3 | -0.1 | – |
| kermit | DRSC06074 | -0.2 | -0.4 | – |
| CG18180 | DRSC10304 | -0.3 | -0.4 | – |
| CG10151 | DRSC05974 | -0.3 | -0.4 | – |
| CG6055 | DRSC02923 | -0.4 | -0.3 | – |
| peb | DRSC18817 | 0.7 | -0.3 | – |
| Fbp2 | DRSC03327 | -0.3 | -0.4 | – |
| CG13284 | DRSC02256 | -0.3 | -0.3 | – |
| cup | DRSC03516 | -0.2 | 0.2 | – |
| trem | DRSC15575 | 1 | 0.2 | – |
| melt | DRSC11367 | -0.2 | -0.1 | – |
| Mnr | DRSC20549 | -0.3 | -0.2 | – |
| Mnr | DRSC20550 | -0.1 | -1.2 | -0.6 |
| CG13360 | DRSC18536 | -0.1 | -0.1 | – |
| Syn2 | DRSC06902 | -0.3 | -0.4 | – |
| CG10801 | DRSC17761 | -0.2 | -0.3 | – |
| CanB2 | DRSC07355 | -0.7 | -0.3 | – |
| eIF4H1 | DRSC20276 | 2.9 | 2.2 | – |
| san | DRSC07695 | 0 | -0.3 | – |
| l(3)76BDm | DRSC11047 | -0.4 | -0.5 | – |
| ex | DRSC00817 | -0.5 | -0.9 | – |
| TyrRS-m | DRSC04286 | 0.3 | 0.1 | – |
| CG12814 | DRSC14552 | -0.3 | 0 | – |
| CG12814 | DRSC14553 | -0.3 | -0.2 | – |
| CG3823 | DRSC18325 | -0.2 | -0.3 | – |
| CG16787 | DRSC04282 | -0.2 | 0.1 | – |
| Gr59e | DRSC04276 | -0.1 | 0.6 | – |
| Bug22 | DRSC02842 | 0.5 | 0.8 | – |
| CG15653 | DRSC04244 | -0.2 | -0.3 | – |
| Scsalpha2 | DRSC16003 | -0.3 | -0.7 | – |
| CG5357 (retired record) | DRSC04497 | 0.5 | 0.7 | – |
| Rcd-1 | DRSC19569 | 1.3 | 0.8 | – |
| Gdh | DRSC16679 | -0.1 | 0.7 | – |
| Fic | DRSC03247 | -0.3 | -0.6 | – |
| CG15719 | DRSC19685 | 0 | -0.2 | – |
| Tsf1 | DRSC20296 | -0.4 | -0.4 | – |
| CG13671 | DRSC10030 | -0.2 | -0.5 | – |
| Spn88Ea | DRSC17061 | 0 | 0.1 | – |
| CG34051 | DRSC01739 | -0.7 | 1.4 | 0.4 |
| Dnali1 | DRSC16158 | -0.4 | -0.6 | – |
| Dbp45A | DRSC07395 | -0.4 | -0.2 | – |
| CG9162 (retired record) | DRSC03151 | -0.3 | -0.4 | – |
| Targ | DRSC06206 | -0.2 | -0.2 | – |
| CG6962 | DRSC16153 | 0.7 | 2.7 | – |
| mRpL44 | DRSC12306 | 0.8 | 0.7 | – |
| l(1)10Bb | DRSC20346 | 3.1 | 3.8 | – |
| CG11899 | DRSC16656 | -0.1 | -0.3 | – |
| fid | DRSC14885 | -0.4 | -0.6 | – |
| fid | DRSC16464 | -0.7 | -0.7 | – |
| Glt | DRSC03333 | -0.4 | -0.3 | – |
| puml | DRSC06793 | -0.3 | -0.5 | – |
| lola | DRSC05220 | -0.3 | 0 | – |
| lola | DRSC05221 | 1.4 | 0 | – |
| lola | DRSC05222 | -0.1 | 0.4 | – |
| lola | DRSC05223 | 0.1 | 0 | – |
| lola | DRSC05224 | -0.2 | -0.3 | – |
| lola | DRSC06738 | 0.2 | 0.2 | – |
| lola | DRSC06739 | 0.1 | 0.5 | – |
| lola | DRSC06740 | -0.6 | -1.3 | – |
| lola | DRSC06741 | -0.1 | -0.1 | – |
| lola | DRSC06742 | 1.5 | 1.9 | – |
| lola | DRSC07646 | -0.4 | -0.6 | – |
| lola | DRSC07647 | -0.5 | -1 | – |
